Results of single-concentration screens

Measurements from “University of Dundee, Small-Polar-MMV Screening Library” (2021), ChEMBL document CHEMBL3988442.

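Whole-parasite assay of Trypanosoma brucei over 72 hours; the read-out is not stated. Tested at 10 µM. Direction is inferred from retests: higher values go with stronger inhibition. Values scatter widely below zero; nearly all retest evidence comes from the higher of the two concentrations used. About 2,700 compounds were tested under these conditions; 0.51% (about 14) showed 50% or more at least once.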

Each number is a percent effect as filed.
The controls that fix the scale are not given in the record; negative values are as filed.
This is an unselected part of the compounds tested.

| # | compound | Percent Effect |
|---|---|---|
| 1 | `Cc1nc(C)n(CC2CCCN(CC3CCCCC3)C2)n1` (stereo not drawn) | -26.54% |
| 2 | `Cc1ccc(-c2nc(C(=O)N3CCCC(C(N)=O)C3)cs2)c(C)c1` (stereo not drawn) | -65.33% |
| 3 | `Cc1cnn(CC2CN(CC(=O)Nc3nccs3)CCO2)c1` (stereo not drawn) | -103.2% |
| 4 | `CC(Cn1ccnc1)NC(=O)NCCc1cccs1` (stereo not drawn) | -65.23% |
| 5 | `COc1ncccc1NC(=O)N(Cc1ccco1)C1CC1` | -50.08% |
| 6 | `CCOc1ccnc(N2CCN(C(=O)c3cn[nH]c3C)CC2)n1` | -33.06% |
| 7 | `Cc1cc(CN2Cc3ccccc3CC2c2nnc(C)o2)no1` (stereo not drawn) | -43.11% |
| 8 | `CN(Cc1nccn1C)C1CCCN(Cc2noc(C3CC3)n2)C1` (stereo not drawn) | -81.55% |
| 9 | `C1CC(c2noc(C3CC3)n2)N(Cc2nnc(C3CC3)o2)C1` (stereo not drawn) | -13.69% |
| 10 | `CC(C)c1nn(C)c(N(C)C)c1CNCc1cccnc1N(C)C` | -35.91% |
| 11 | `CCc1nnc2n1CCN(Cc1cccc3c1OCCO3)C2` | -88.1% |
| 12 | `CCN(Cc1nc2c(cnn2C)c(=O)[nH]1)Cc1ccccc1Cl` | -52.36% |
| 13 | `CCn1cc(CN2CCCN(C(=O)c3ccc(C#N)cc3)CC2)cn1` | -15.45% |
| 14 | `CCOCCCC(=O)N(C)C(c1cccc(F)c1)c1ccccn1` (stereo not drawn) | -31.02% |
| 15 | `OC(COCc1ccco1)CN1CCc2c(ncn2C2CC2)C1` (stereo not drawn) | -18.9% |
| 16 | `c1ccc(-c2noc(CN3CCCC(Cn4cncn4)C3)n2)nc1` (stereo not drawn) | -59.18% |
| 17 | `CCc1nc(CN2CCCN(c3nn4cc(C)nc4s3)CC2)no1` | -32.89% |
| 18 | `CCn1cnnc1CNC(=O)N1CCN(C(C)C)CC1` | -37.77% |
| 19 | `CCC(CNC(=O)Nc1cnn(CC)c1)N1CCc2ccccc2C1` (stereo not drawn) | -42.69% |
| 20 | `Cc1cnn(CC2CCCCN2C(=O)c2ccc3c(c2)COC3)c1` (stereo not drawn) | -61.7% |
| 21 | `CC(CNC(=O)c1ccc(=O)[nH]n1)N1CCc2ccccc21` (stereo not drawn) | -46.78% |
| 22 | `O=C(c1ccccc1-n1cccn1)N1CCC(Nc2cccnn2)CC1` | -60.06% |
| 23 | `Cn1cc(CN2CCCN(C(=O)c3sccc3C#N)CC2)cn1` | -12.48% |
| 24 | `O=C(CCc1ccsc1)N1CCC(N2CCNC2=O)CC1` | -23.84% |
| 25 | `Cc1nn(-c2ccccc2)nc1C(=O)N1CCCC(n2cccn2)C1` (stereo not drawn) | -11.88% |
| 26 | `Cc1nc(C)n(CC2CCCCN2CCOc2ccc(C#N)cc2)n1` (stereo not drawn) | 3.847% |
| 27 | `CC(C)c1nc(C2CCCN(C(=O)c3nccn4ccnc34)C2)no1` (stereo not drawn) | -43.5% |
| 28 | `COc1ccc(C(=O)N2CCCC2c2noc(C(C)C)n2)nn1` (stereo not drawn) | -88.51% |
| 29 | `Cc1ccc(N(CCC#N)C(=O)CN2CCCC2c2ccsc2)cc1C` (stereo not drawn) | -71.39% |
| 30 | `CCc1nnc(CN2CCOC(Cn3cccn3)C2)o1` (stereo not drawn) | -29.9% |
| 31 | `CC(O)CN1CCC(CNCc2cccc(OC(F)(F)F)c2)CC1` (stereo not drawn) | 16.76% |
| 32 | `O=C(Nc1ccc(F)cc1)N1CCN(Cc2noc(C3CC3)n2)CC1` | -15.13% |
| 33 | `COc1ccccc1CC(=O)N1CCCC(n2nc(C)nc2C)C1` (stereo not drawn) | -1.752% |
| 34 | `Cc1nc2n(n1)CC(NCc1cc(Cl)c3c(c1)OCCO3)CC2` (stereo not drawn) | -50.96% |
| 35 | `Cc1nn(C)c(N(C)C)c1CNC1CCc2cc(F)ccc21.Cl` (stereo not drawn) | -39.72% |

The last 2 entries again:

For Cc1nc2n(n1)CC(NCc1cc(Cl)c3c(c1)OCCO3)CC2 (stereo not drawn) the result was -50.96%.
For Cc1nn(C)c(N(C)C)c1CNC1CCc2cc(F)ccc21.Cl (stereo not drawn) the result was -39.72%.